## Screening data, single-dose tests

Amino acid sequences for entries named in this document (tags omitted). Residues count along the entry.
UniProt A4I591, 1-473: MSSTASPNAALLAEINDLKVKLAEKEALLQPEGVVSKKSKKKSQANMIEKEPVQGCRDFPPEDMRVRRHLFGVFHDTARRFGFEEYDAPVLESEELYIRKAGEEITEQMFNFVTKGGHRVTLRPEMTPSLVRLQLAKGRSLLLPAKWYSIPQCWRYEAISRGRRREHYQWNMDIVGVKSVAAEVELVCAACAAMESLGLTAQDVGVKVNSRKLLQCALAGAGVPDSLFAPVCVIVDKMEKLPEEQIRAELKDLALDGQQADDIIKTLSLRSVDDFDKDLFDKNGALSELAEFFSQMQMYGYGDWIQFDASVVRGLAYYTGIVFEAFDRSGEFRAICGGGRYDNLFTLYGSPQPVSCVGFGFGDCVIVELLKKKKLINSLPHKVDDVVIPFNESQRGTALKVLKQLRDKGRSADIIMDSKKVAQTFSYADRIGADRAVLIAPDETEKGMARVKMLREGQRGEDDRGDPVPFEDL
UniProt I6X8D2, whole entry: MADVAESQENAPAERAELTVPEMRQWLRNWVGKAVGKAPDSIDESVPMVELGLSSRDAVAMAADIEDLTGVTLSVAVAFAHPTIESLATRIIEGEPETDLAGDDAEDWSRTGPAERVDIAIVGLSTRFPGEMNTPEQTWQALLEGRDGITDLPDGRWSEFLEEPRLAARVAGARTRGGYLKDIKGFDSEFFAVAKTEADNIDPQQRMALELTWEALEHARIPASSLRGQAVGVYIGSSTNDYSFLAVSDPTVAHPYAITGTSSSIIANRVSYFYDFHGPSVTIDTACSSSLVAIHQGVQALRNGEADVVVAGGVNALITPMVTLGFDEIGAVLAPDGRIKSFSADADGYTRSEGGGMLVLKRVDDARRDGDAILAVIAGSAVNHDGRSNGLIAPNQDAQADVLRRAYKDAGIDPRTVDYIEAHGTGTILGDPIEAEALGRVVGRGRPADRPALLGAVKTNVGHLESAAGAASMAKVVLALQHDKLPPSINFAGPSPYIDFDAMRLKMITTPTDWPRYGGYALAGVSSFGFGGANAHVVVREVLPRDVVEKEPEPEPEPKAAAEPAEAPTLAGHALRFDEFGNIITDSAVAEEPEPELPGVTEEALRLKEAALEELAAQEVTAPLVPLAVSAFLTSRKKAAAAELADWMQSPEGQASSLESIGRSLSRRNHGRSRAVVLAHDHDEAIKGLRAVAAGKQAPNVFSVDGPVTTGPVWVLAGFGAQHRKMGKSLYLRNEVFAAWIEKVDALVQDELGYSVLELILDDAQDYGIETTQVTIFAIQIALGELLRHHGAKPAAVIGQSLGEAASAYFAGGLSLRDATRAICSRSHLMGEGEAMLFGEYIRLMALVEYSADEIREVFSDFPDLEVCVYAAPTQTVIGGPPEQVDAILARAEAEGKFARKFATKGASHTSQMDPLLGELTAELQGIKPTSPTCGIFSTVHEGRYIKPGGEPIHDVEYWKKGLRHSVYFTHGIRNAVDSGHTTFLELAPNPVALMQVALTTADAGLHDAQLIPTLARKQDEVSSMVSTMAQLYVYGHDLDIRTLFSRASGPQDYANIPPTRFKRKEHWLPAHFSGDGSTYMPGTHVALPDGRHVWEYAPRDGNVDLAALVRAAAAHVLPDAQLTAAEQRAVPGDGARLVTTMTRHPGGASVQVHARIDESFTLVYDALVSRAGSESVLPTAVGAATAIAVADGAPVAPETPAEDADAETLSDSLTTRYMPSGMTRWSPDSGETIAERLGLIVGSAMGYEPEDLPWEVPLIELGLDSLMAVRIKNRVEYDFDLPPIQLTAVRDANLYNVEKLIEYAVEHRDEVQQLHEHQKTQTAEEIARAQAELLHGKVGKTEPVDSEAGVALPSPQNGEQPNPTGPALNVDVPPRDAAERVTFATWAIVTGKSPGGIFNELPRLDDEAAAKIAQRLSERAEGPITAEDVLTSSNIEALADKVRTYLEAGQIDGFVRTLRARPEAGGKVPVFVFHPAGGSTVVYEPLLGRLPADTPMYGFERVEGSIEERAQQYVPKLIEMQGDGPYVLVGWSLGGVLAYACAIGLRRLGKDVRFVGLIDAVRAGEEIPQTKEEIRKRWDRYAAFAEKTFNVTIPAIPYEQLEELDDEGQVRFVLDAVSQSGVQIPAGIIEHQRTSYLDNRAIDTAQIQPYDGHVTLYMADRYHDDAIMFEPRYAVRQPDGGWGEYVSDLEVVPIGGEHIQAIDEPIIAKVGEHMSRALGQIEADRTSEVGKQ

The values are deposited in ChEMBL (CHEMBL3988442, “University of Dundee, Small-Polar-MMV Screening Library” (2021)).

A: 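Histidine-tRNA ligase, Leishmania infantum (UniProt A4I591). Enzyme assay of histidyl-tRNA synthetase; the read-out is not stated. Concentration: 30 µM. Higher reads as stronger inhibition (inferred: compounds with an IC50 in retests scored well above the rest). The assay is labelled LdHisRS but filed under L. infantum. Of about 69,000 compounds tested this way, about 410 (0.6%) reached 50% or more in at least one test.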
B: 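Enzyme assay of the thioesterase domain of polyketide synthase 13; the read-out is not stated. Target: Polyketide synthase Pks13, Mycobacterium tuberculosis (UniProt I6X8D2). Concentration: 30 µM. The record gives no direction; the compounds picked for IC50 retests had high values, so higher reads as stronger inhibition. About 67,000 compounds were tested under these conditions; 0.46% (about 300) showed 50% or more at least once.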
C: 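Cell assay of Leishmania donovani living inside macrophages; the read-out is not stated. Concentration: 30 µM. Higher reads as stronger inhibition (inferred: compounds with an IC50 in retests scored well above the rest). About 69,000 compounds were tested under these conditions; 1.5% (about 1,000) showed 50% or more at least once.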

The filed quantity is “Percent Effect” (%).
The controls that fix the scale are not given in the record; negative values are as filed.
This is an unselected part of the compounds tested.
Two or more numbers in one place are separate tests of the same structure; such repeats can differ widely.
A dash means the value is not listed here; it may have been measured.

compound: CNC(=O)c1cnc(/C=C/c2ccc(O)c(OC)c2)s1
A: 9.821
B: 26.77
C: -2.507

compound: CCN(C(C)=O)C1CCN(c2nccc(CCC(F)(F)F)n2)C1 (stereo not given)
A: 21.21
B: -27.59
C: 1.552

compound: O=C(C1CCCC1)N1CC(c2nc(Cc3ccccc3)no2)C1
A: 8.264
B: -14.99
C: -8.926

compound: COc1ccc(C)cc1NC(=O)C1CSc2ncc(C)c(=O)n2C1 (stereo not given)
A: 20.51
B: -25.86
C: 39.51 & -5.521

compound: Cc1oc(-c2ccsc2)nc1CNCCn1cccn1
A: 16.88
B: -43.09
C: 21.63

compound: CCc1n[nH]c(C2CN(C(=O)c3ccsc3)CCO2)n1 (stereo not given)
A: -2.667
B: -18.46
C: -8.329

compound: Cc1cnc(C(=O)N2CCNCC2C(=O)NCc2ccncc2)cn1 (stereo not given)
A: 11.97
C: -3.9

compound: Nc1ncnc2nc(C3CCN(C(=O)Cc4ccccc4)C3)ccc12 (stereo not given)
A: 14.39
B: -7.603
C: -5.865

compound: Cc1ccc(C(=O)Nc2nc(C)no2)cc1
A: 14.91
B: -12.65
C: 15.8

compound: CCn1c(CN2CCCC(O)(c3ccc(F)cc3)CC2)cnc1SC (stereo not given)
A: 5.755
B: 9.087

compound: COCCN1CCC2(CC1)CN(C(=O)c1ccccc1)CCO2
A: 7.692
B: -4.396

compound: CCn1ncc2c1C(COCC1CC1)CN(C(=O)c1ccncn1)C2.O=C(O)C(F)(F)F (stereo not given)
C: 32.25

compound: Cc1cc(N(C)C)nc(C2CCCNC2)n1 (stereo not given)
A: 2.837
B: 3.441

compound: O=C(CNc1cccc(S(=O)(=O)C(F)F)c1)Nc1ccccc1
A: 12.82
B: -25.6
C: 18.49

compound: OC1CN(c2nc3c(C(F)(F)F)cccc3s2)C1
A: 19.51
B: 6.739
C: -9.574

compound: CC(C)N(Cc1cccnc1)C(=O)CNc1ccc(C#N)cc1
A: 8.219
B: -11.18
C: 5.681

compound: Cc1cc(C)cc(NS(=O)(=O)c2cc3c(c(C(=O)O)c2)OCCO3)c1
A: 21.62
B: 6.195
C: -12.63

compound: Cc1noc([C@]23COC[C@H]2CN(C(C)C)C3)n1
A: 14
B: 5.988

compound: O=C(c1cccs1)N1CC[C@H](O)[C@@H]1Cc1ccccc1
A: 7.317
B: -12.84
C: 4.047

compound: CC(Cn1cccn1)NCc1csc2c1CCCC2 (stereo not given)
A: 16.44
B: -11.05
C: 11.74

Some entries from above, unchanged:

compound	A	B	C
O=C(CNc1cccc(S(=O)(=O)C(F)F)c1)Nc1ccccc1	12.82	-25.6	18.49
COCCN1CCC2(CC1)CN(C(=O)c1ccccc1)CCO2	7.692	-4.396	-